In PubChem BioAssay AID2517 (National Center for Advancing Translational Sciences (NCATS), 2010):
Out of some 350,000 compounds screened, about 1,200 (0.34%) were called active. The inconclusive results got no clear call from the source; some entries with a clear call stand among them for comparison. The call rests on the fitted dose curve; in most records, active means well fitted inhibition curve with a large enough effect; inconclusive means small, poorly fitted or top-dose-only effect; inactive means no such curve, though single readings can be large or run the other way. Where the call is inconclusive, the potency comes from a doubtful curve fit.

Amino acid sequences for entries named in this document (tags omitted).
UniProt P27695, whole entry, looked up: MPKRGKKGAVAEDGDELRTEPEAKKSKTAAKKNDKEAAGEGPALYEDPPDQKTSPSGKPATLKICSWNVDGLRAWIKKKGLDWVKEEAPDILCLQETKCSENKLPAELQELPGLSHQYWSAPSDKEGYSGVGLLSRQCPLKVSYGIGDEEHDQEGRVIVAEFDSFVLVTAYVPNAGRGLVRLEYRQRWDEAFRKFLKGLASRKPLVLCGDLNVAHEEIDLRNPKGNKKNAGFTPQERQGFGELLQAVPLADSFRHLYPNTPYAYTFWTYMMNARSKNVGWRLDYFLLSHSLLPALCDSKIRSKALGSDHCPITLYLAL

Biological target: DNA repair nuclease/redox regulator APEX1 (Homo sapiens) (UniProt P27695)
Assay: qHTS Assay for Inhibitors of the Human Apurinic/apyrimidinic Endonuclease 1 (APE1); further: nearly all actives have a fitted effect of over 55% in size;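 on activity change, negative = inhibition: plate controls were vehicle for no effect and reference inhibitor for full effect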
Settings: recombinant APE1, TAMRA/BHQ-2 abasic DNA cleavage fluorescence; activity change, negative = inhibition: at 65.8 µM (top of the series)
In short: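 Enzyme (0.75 nM final) and test compound are incubated 15 min at room temperature before adding 50 nM quenched THF abasic-site duplex. Cleavage dequenches TAMRA, followed at 525/598 nm over three reads one minute apart.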
Potency means the concentration at half of the fitted maximal effect.

Structure (SMILES)	Potency	activity change, negative = inhibition
Cc1ccc2nc(NC(=O)CCCC(=O)O)sc2c1	inconclusive: 28.2 µM [inhibitor, partial curve]	–
O=C(C1CC(=O)N(c2ccc3c(c2)OCCO3)C1)N1CCN(c2ccccc2)CC1 (configuration not stated)	inconclusive: 39.8 µM [inhibitor, single point]	–
O=C(O)c1cc2nc3c(c(C(F)(F)F)n2n1)CCc1ccccc1-3	inconclusive: 3.55 µM [inhibitor, single point]	–
CCOC(=O)c1sc(N=NC2=C(O)CCCC2=O)c(C(=O)OCC)c1C	inconclusive: 20 µM [inhibitor, single point]	–
O=C(O)C1CC=CCC1C(=O)Nc1cccc(Cl)c1 (configuration not stated)	–	inactive: -0.653%
CCOc1ccc(C(=O)N[C@H](C(=O)Nc2cccc(S(=O)(=O)N3CCCCC3)c2)C(C)C)cc1	inconclusive: 4.47 µM [inhibitor, single point]	–
COc1ccc(S(=O)(=O)Nc2ccc(S(=O)(=O)N3CCOCC3)cc2)cc1	inconclusive: 200 µM [inhibitor, partial curve, poor fit]	–
O=C1CSC(=S)N1/N=C/c1ccc(O)c([N+](=O)[O-])c1	inconclusive: 28.2 µM [inhibitor, single point]	–
CNc1ccccc1C(=O)OCC(C)=O	inconclusive: 8.91 µM [inhibitor, single point]	–
CC(C)Cn1c(N)c(C(=O)COC(=O)c2ccccc2F)c(=O)n(C)c1=O	inconclusive: 50.1 µM [inhibitor, partial curve, poor fit]	–
COc1cccc(C(=O)NC2CC3CCCC(C2)N3CC(=O)Nc2ccccc2)c1 (configuration not stated)	inconclusive: 35.5 µM [inhibitor, single point]	–
COc1cccc([C@H](O)Cn2cc(-c3ccc(CON=C(C)C)cc3)nn2)c1	inconclusive: 3.55 µM [inhibitor, single point]	–
COc1ccc(Cl)cc1Nc1nnc(-c2ccncc2)s1	active: 8.44 µM	–
COc1ccccc1NC(=O)CCN1CC(C)OC(C)C1 (configuration not stated)	inconclusive: 0.0316 µM [inhibitor, full curve, poor fit]	–
COc1cc(/C=C2\SC(=O)N(CCNC(=O)c3sc4cc(F)ccc4c3Cl)C2=O)cc(OC)c1OC	inconclusive: 39.8 µM [inhibitor, single point]	–
CC(C)c1ccc(C(C(=O)NC2CCCCC2)N(C(=O)c2ccccn2)c2cccnc2)cc1 (configuration not stated)	inconclusive: 6.31 µM [inhibitor, single point]	–
C/C1=C\[C@@H](O)C(C(C)C)C(OC(=O)c2ccc(O)cc2)C/C(C)=C/CC1 (some centres not stated)	inconclusive: 44.7 µM [inhibitor, single point]	–
O=c1c2c(-c3ccccc3)csc2nc2c3ccccc3c(NCCN3CCOCC3)nn12	inconclusive: 44.7 µM [inhibitor, partial curve, poor fit]	–
Cc1cccc(N2CCN(C(=O)C(Cc3ccccc3)n3cccc3)CC2)c1C (configuration not stated)	inconclusive: 28.2 µM [inhibitor, single point]	–
Cc1ccc(N=C2NC(=O)/C(=C/C=C/c3ccco3)S2)cc1	active: 17.8 µM	–
Cc1ccc(O)c(NC(=O)CSc2n[nH]c(-c3ccccc3)n2)c1	–	inactive: 6.01%

Whole records from above:
`COc1cccc([C@H](O)Cn2cc(-c3ccc(CON=C(C)C)cc3)nn2)c1` is listed with Potency: inconclusive: 3.55 µM [inhibitor, single point]
`Cc1ccc(O)c(NC(=O)CSc2n[nH]c(-c3ccccc3)n2)c1` is listed with activity change, negative = inhibition: inactive: 6.01%

Remaining list, next part

Structure (SMILES)	Potency	activity change, negative = inhibition
COc1cc2c(cc1OC)-c1n[nH]c(=S)n1C(C)(C)C2	–	inactive: -3.77%
Cc1nc(CC(=O)c2c(C)cc(O)cc2O)cs1	inconclusive: 39.8 µM [inhibitor, single point]	–
O=C(N/N=C/c1ccc(Br)s1)c1cccc([N+](=O)[O-])c1	inconclusive: 4.47 µM [inhibitor, single point]	–
COCCCn1c2nc3ccccc3nc2c2c(=O)n(Cc3ccc(Cl)cc3)cnc21	–	inactive: -3.44%
CC[C@H](NC(=O)c1c(C)c(-c2ccccc2)nc2ccccc12)c1ccccc1	inconclusive: 44.7 µM [inhibitor, single point]	–
O=C(CSc1nc2nn(-c3ccccc3)c(=O)c-2c2n1CCCCC2)c1ccc(O)c(O)c1	inconclusive: 1.89 µM [inhibitor, full curve]	–
CCOC(=O)c1c(NC(=O)c2ccoc2C)sc(C(=O)N(C)C)c1C	inconclusive: 2.82 µM [inhibitor, partial curve]	–
CC(C)CCN1NC2(CCC(C)CC2)NC1=S (configuration not stated)	inconclusive: 3.55 µM [inhibitor, single point]	–
O=C(Nc1cccc(C(F)(F)F)c1)Oc1ccc(Cl)c2cccnc12	–	inactive: 2.56%
COC(=O)c1cc2occc2n1Cc1nc(-c2ccccc2Cl)oc1C	inconclusive: 7.08 µM [inhibitor, single point]	–
Cc1cccc(NC(=O)CN2C(=O)CCSc3ccc(S(=O)(=O)N4CCOCC4)cc32)c1C	inconclusive: 21.2 µM [inhibitor, single point]	–
Cc1ccc(S(=O)(=O)C2(C(=O)Nc3ccc4c(c3)OCO4)CC2)cc1	inconclusive: 17.8 µM [inhibitor, single point]	–
O=C(NCc1ccncc1)Nc1cccc(Cl)c1	inconclusive: 2.82 µM [inhibitor, partial curve]	–
O=C(Nc1ccc(F)cc1)N1CCCN(c2ccc(C(F)(F)F)cn2)CC1	inconclusive: 7.94 µM [inhibitor, single point]	–
COCCN1C(=O)N[C@@H](c2cccc(C(F)(F)F)c2)C(C(C)=O)=C1C	–	inactive: -2.37%
O=C1CC(N2CCC(c3nc4ccccc4o3)CC2)C(=O)N1 (configuration not stated)	–	inactive: 1.65%
CO[C@@H]1COC(=O)[C@H](C)NC(=O)C/C=C\[C@@H](C)[C@H](OC)COC(=O)[C@H](C)NC(=O)C/C=C\[C@H]1C	inconclusive: 7.94 µM [inhibitor, single point]	–
CN(C)Cc1ccc(O)c(CCc2ccccc2)n1	inconclusive: 20 µM [inhibitor, single point]	–
Cc1ccc(NS(=O)(=O)c2ccc(OCC(=O)Nc3cccc([N+](=O)[O-])c3)c(C)c2)cc1	inconclusive: 39.8 µM [inhibitor, single point]	–
COc1cc(N)ccc1C(=O)O	–	inactive: 5.76%
CC(C)=CC(=O)OCC(=O)Nc1ccc(SC(F)F)cc1	inconclusive: 6.31 µM [inhibitor, single point]	–
